For one assay, the target named is LATS1 (Homo sapiens, UniProt O95835). Put plainly: RBC HotSpot kinase assay (33P-ATP, P81 filter-binding), LATS1. The conditions noted are these: read-out: LATS1 IC50; Table 32, biochemical kinase assay.
In a further assay the target is AKT (Homo sapiens, UniProt P31749). Put plainly: RBC HotSpot kinase assay (33P-ATP, P81 filter-binding), AKT. The conditions noted are these: read-out: AKT IC50; Table 32, biochemical kinase assay.
For the next assay, the target named is LATS2 (Homo sapiens, UniProt Q9NRM7). Put plainly: RBC HotSpot kinase assay (33P-ATP, P81 filter-binding), LATS2. The conditions noted are these: read-out: LATS2 IC50; Table 32, biochemical kinase assay.

Amino acid sequences for entries named in this document (tags omitted).
UniProt O95835, whole entry: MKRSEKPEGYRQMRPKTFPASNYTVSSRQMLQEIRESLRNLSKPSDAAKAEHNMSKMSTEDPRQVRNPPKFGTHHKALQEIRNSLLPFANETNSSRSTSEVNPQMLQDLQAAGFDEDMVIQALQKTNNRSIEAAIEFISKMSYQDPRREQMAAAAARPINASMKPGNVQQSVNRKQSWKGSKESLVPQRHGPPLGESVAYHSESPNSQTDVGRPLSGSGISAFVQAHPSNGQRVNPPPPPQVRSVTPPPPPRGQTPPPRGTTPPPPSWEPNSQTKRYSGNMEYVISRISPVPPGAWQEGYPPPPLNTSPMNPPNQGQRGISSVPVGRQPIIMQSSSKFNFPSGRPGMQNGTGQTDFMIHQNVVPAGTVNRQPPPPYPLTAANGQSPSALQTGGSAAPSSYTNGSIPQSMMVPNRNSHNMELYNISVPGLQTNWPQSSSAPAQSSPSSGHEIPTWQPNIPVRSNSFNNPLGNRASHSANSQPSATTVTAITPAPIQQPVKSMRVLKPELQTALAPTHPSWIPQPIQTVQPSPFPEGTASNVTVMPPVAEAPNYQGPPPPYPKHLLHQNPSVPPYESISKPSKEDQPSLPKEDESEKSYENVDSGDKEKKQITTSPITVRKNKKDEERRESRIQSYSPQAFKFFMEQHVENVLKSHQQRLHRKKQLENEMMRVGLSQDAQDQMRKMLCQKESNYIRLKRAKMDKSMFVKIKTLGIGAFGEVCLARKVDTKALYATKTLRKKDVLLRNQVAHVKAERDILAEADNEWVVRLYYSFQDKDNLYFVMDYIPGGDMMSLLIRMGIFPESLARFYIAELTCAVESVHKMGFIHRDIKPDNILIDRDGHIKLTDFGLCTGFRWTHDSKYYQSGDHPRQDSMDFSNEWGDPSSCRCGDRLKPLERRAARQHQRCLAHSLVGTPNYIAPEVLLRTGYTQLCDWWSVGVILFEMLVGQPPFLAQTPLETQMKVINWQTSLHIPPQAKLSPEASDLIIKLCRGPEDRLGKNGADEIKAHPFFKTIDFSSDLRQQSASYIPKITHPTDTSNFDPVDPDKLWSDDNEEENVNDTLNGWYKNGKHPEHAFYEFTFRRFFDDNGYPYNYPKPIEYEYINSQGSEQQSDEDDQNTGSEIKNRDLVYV
UniProt P31749, whole entry: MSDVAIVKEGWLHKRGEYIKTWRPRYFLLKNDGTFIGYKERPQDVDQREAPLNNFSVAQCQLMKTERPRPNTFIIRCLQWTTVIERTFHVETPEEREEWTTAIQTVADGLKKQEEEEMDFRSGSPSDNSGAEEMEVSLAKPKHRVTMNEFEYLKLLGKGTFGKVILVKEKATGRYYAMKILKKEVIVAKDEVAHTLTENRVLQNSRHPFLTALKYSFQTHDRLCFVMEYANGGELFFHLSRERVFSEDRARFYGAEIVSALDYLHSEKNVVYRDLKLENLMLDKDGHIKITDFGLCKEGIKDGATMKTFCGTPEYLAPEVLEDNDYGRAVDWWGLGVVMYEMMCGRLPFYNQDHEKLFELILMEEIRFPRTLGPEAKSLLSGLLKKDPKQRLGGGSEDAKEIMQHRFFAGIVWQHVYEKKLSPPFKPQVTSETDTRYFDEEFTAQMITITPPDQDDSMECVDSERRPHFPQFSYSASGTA
UniProt Q9NRM7, whole entry: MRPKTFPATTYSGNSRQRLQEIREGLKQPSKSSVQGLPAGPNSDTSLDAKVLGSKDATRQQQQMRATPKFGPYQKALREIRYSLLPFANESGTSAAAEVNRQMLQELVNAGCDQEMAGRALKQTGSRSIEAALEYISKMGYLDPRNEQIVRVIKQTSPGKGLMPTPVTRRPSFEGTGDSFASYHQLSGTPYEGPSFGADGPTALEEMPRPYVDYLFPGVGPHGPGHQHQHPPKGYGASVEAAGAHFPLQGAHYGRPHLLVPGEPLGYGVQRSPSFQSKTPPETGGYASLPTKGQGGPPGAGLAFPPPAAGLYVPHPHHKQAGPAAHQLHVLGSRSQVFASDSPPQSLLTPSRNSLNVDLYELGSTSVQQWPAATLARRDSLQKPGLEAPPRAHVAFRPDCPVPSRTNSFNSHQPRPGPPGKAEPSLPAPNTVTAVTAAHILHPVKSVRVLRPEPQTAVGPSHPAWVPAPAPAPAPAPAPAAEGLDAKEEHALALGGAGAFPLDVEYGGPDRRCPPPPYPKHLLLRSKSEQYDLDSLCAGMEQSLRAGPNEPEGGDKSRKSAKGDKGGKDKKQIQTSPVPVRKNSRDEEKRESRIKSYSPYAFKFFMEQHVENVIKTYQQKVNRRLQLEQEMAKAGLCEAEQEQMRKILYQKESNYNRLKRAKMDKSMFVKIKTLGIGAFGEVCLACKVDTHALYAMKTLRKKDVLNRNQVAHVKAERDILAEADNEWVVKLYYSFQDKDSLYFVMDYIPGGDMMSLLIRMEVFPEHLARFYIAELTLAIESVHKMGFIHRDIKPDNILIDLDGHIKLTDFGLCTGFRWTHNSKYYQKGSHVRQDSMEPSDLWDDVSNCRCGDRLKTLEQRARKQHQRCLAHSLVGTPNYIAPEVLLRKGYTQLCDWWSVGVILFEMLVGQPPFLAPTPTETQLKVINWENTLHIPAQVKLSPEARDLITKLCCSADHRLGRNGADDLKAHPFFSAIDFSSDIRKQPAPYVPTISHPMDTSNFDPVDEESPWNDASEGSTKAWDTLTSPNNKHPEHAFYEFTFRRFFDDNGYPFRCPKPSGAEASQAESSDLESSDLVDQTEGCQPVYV

The structures given here were assigned with low confidence; some may be wrong.

For orientation: IC50 means the concentration needed to halve the response being measured. With `NCC(O)(c1ccccc1)c1ccc(-c2ccnc3[nH]ccc23)cc1` (stereo not drawn), the IC50 on LATS1 was 6.5 nM; at AKT, 8 nM; at LATS2, 8.6 nM.

Source of the values: patent publication US20250361230A1, “LATS Inhibitors and Uses Thereof” (The USA, as Represented by the Secretary, Dept. of Heath …, priority 2022, published 2025).
